Measurements reported in patent US20070077239A1.
These are yes or no findings as the source states them, for the method shown. Some binding calls cover weakened binding; strength is not graded here.

Amino acid sequences for entries named in this document (tags omitted). Residues count along the entry.
UniProt P02768, residues 25-609: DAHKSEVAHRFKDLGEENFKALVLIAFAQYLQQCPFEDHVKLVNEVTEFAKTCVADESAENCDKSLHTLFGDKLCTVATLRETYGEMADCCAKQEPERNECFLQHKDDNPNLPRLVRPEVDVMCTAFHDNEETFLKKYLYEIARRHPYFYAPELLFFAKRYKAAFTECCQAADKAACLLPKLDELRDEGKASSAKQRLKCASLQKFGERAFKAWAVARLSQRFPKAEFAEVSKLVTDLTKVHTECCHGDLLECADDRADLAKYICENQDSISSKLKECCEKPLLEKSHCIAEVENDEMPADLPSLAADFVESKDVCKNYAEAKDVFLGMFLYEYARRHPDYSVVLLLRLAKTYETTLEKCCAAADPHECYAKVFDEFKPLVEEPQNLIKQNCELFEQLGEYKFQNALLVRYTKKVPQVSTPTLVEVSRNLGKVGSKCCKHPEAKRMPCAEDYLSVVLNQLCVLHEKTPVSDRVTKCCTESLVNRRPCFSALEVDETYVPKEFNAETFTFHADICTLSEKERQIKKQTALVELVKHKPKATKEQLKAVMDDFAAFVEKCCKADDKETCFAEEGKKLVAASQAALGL
UniProt P05164, residues 165-745: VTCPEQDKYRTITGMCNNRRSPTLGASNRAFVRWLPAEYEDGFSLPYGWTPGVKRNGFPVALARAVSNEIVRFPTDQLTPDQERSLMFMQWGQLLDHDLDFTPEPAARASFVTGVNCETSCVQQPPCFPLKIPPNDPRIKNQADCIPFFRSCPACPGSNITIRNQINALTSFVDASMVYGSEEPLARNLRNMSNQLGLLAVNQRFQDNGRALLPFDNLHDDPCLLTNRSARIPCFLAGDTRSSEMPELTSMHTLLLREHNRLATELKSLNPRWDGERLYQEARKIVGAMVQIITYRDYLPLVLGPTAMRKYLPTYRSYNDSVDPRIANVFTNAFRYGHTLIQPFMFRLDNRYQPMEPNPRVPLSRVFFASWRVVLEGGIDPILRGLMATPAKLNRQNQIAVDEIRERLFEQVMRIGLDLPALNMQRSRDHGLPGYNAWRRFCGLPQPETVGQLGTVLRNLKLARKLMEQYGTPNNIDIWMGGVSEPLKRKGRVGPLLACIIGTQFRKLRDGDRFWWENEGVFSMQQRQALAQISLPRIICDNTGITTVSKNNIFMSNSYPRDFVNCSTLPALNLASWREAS

Tests used:
[1] = molecular target: human serum albumin (human) (UniProt P02768); test: summary of the HSA-affinity and peptide binding studies
[2] = molecular target: human serum albumin (human) (UniProt P02768); test: HSA-affinity column, SDS-PAGE and MALDI-MS (FIG. 1A, 1B)
[3] = molecular target: human serum albumin (human) (UniProt P02768); test: HSA-Sepharose affinity chromatography of human lung extract, elution at pH 4.0, SDS-PAGE, MALDI-MS

binding [1]: binds
binding [2]: binds
binding [3]: binds
Substance: MPO (80 kDa protein isolated from human lung tissue) (from UniProt P05164 165-745) (enzyme)
